Reference: doi:10.1101/2020.04.14.041293
Results are given in words; binding and its absence hold for the method and conditions named. In cells and extracts the contact can be indirect. Some results given as binding are weak or reduced against the parent protein; the word gives no strength. For some assays here: Sequences can lack the tags named with a protein.

Chains of the proteins cited; added tags and fusions are not shown.
UniProt Q12778: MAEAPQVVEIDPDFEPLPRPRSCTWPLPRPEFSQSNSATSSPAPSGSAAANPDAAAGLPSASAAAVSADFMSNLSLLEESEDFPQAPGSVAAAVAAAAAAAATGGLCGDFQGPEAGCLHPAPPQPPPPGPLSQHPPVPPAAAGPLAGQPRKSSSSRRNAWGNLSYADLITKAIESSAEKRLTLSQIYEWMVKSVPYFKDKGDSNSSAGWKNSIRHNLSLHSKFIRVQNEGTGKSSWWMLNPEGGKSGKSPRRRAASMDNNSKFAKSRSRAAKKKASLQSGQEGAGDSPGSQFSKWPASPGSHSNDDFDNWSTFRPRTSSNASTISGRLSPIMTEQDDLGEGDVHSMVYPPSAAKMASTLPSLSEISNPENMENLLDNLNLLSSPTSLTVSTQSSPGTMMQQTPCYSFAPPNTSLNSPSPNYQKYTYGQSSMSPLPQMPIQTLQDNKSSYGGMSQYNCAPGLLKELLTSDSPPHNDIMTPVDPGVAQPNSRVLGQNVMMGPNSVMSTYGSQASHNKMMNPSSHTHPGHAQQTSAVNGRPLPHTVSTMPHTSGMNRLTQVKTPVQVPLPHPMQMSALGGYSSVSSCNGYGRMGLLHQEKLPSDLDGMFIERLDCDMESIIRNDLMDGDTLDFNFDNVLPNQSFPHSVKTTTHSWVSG
UniProt Q14653: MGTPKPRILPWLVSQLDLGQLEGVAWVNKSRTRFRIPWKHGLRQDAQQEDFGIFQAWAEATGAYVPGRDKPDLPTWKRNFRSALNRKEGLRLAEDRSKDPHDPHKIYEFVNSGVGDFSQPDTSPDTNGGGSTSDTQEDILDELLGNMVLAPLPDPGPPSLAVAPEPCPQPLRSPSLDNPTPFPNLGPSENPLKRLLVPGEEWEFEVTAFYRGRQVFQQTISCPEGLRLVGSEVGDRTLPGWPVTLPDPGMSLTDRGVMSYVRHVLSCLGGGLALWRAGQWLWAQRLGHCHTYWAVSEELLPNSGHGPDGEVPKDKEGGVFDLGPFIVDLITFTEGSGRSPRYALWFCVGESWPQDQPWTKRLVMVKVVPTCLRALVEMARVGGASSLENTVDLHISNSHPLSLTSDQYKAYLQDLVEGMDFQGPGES

Assays:
Flag-TRAF2 = biological target: T1, Flag-TRAF2 (UniProt Q12933); assay: co-IP
T1 sequence: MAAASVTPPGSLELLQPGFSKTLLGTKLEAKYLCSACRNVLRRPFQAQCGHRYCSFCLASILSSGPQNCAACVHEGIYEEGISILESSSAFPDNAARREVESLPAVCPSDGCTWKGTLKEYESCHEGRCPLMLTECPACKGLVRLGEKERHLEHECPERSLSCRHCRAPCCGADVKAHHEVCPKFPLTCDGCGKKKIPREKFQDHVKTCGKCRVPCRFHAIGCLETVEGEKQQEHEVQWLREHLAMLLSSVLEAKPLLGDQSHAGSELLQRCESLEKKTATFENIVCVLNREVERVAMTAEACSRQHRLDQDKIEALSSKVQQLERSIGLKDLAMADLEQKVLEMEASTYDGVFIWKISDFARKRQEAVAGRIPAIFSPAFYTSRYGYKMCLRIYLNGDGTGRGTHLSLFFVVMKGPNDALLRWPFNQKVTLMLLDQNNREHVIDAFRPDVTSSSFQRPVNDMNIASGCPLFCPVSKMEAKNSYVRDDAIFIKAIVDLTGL

Flag-FoxO1 = Flag-FoxO1 (UniProt Q12778); assay: co-IP

Substance | binding (Flag-TRAF2) | binding (Flag-FoxO1)
Myc-FoxO1 (from UniProt Q12778 1-655) | no binding | –
endogenous IRF3 (from UniProt Q14653 1-427) | – | binds
